Binding data for one substance are collected here from article PMC5131486.

The target of this experiment is T1, mouse IRF3, V5-tagged (mouse) (UniProt P70671).
T1 sequence: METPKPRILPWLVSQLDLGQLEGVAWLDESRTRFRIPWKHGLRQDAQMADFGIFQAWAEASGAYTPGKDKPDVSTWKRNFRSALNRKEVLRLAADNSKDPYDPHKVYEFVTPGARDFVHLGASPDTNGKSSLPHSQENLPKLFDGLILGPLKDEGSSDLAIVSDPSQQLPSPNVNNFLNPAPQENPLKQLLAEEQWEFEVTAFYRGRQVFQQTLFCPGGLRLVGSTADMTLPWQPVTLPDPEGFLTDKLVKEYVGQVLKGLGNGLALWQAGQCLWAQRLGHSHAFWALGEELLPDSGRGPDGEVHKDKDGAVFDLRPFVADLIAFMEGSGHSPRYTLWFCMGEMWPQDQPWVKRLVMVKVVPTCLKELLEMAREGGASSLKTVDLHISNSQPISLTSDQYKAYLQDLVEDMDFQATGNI
Nature of the experiment: co-IP; MEF cells transiently transfected with V5-IRF3 and FLAG-NS1; MG132 added to the culture to stabilize the substrate; IP with mouse anti-V5 antibody on protein A-Sepharose, immunoblot with mouse anti-FLAG antibody.

These are yes or no findings as the source states them, for the method shown. Binding seen in cells or lysates may run through a third protein. Binding calls can cover weak binding; strength is not graded here. Tags and fused reporters may be left off the sequences shown.

As for “Pneumonia Virus of Mice (PVM) nonstructural protein 1, FLAG-tagged”, the binding entry is given as “binds”.
